According to patent publication EP2832747A1:

Legend:
[1] = molecular target: HA-tagged murine GARP (murine); experiment: flow cytometry, BW5147 clone expressing HA-tagged mGARP
[2] = molecular target: HA-tagged hGARP Mut I (human); experiment: flow cytometry, BW5147 clones expressing HA-tagged forms of hGARP
[3] = molecular target: HA-tagged hGARP Mut II (human); experiment: as above

- binding [1]: no binding
- binding [2]: binds
- binding [3]: binds
B1: MHGARP8 (antibody, V domains shown)
VH: QVQLKESGPGLVAPSQSLSITCTVSGFSLTGYGINWVRQPPGKGLEWLGMIWSDGSTDYNSVLTSRLRISKDNSNSQVFLKMNSLQVDDTARYYCARDRNYYDYDGAMDYWGQGTSVTVSS
VL: DIQVTQSSSYLSVSLGDRVTITCKASDHIKNWLAWYQQKPGIAPRLLVSGATSLEAGVPSRFSGSGSGKNFTLSITSLQTEDVATYYCQQYWSTPWTFGGGTTLEIR

Results are given in words; binding and its absence hold for the method and conditions named. For part of these data: Binding calls can cover weak binding; strength is not graded here.
